This note sets out measurements from PMC3251603.

The chains behind the UniProt entries cited, without tags or fusion partners. Where a name states a change or a piece, a line headed by the entry shows the natural chain unless it says otherwise. A line that says so, or that is headed by a name, gives the form on record, which may keep a tag or linker. Residues count along the entry.
human IgG Fc-tagged human GPR56^N (hGPR56^N-hFc), wild type (Q9Y653, residues 27-382): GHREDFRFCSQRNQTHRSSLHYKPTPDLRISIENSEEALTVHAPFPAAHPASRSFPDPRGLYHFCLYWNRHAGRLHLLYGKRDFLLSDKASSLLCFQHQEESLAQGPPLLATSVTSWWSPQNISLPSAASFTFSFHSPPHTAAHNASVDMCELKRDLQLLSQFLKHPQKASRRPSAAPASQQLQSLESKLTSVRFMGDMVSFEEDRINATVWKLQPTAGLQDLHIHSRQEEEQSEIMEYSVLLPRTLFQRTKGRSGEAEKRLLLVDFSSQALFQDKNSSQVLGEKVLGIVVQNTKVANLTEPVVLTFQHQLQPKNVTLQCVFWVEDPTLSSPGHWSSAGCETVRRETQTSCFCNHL
human GPR56^N-hFc C91S (Q9Y653, form named): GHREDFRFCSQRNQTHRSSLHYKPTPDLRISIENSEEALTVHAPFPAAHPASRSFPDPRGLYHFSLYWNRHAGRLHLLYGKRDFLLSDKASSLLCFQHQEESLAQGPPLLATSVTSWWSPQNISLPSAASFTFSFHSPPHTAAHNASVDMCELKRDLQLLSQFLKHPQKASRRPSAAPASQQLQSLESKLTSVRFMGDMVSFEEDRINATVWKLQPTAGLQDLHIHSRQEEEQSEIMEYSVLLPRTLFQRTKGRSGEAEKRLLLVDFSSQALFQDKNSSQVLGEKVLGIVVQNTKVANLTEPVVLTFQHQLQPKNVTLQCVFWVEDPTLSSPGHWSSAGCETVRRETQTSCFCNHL
human GPR56^N-hFc Y88C (Q9Y653, form named): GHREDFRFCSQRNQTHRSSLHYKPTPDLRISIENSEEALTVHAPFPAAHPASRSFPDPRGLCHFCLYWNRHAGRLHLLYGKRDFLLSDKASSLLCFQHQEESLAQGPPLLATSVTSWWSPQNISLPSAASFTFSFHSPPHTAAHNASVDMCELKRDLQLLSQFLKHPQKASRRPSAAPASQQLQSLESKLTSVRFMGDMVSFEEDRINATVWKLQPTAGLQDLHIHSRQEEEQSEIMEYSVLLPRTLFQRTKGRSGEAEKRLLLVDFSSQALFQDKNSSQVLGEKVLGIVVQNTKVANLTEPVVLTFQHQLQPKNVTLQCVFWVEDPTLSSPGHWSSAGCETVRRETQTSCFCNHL
human GPR56^N-hFc R38Q (Q9Y653, form named): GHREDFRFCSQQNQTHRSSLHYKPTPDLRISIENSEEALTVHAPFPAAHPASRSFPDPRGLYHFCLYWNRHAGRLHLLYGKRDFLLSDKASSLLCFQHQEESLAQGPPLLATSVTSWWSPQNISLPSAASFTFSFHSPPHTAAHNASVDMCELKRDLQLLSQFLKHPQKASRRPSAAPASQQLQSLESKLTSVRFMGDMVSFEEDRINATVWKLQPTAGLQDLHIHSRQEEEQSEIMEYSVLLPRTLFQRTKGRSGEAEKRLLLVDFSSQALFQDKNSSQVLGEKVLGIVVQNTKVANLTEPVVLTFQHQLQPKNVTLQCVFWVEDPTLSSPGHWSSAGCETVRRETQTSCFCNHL
UniProt P02461, residues 154-1221: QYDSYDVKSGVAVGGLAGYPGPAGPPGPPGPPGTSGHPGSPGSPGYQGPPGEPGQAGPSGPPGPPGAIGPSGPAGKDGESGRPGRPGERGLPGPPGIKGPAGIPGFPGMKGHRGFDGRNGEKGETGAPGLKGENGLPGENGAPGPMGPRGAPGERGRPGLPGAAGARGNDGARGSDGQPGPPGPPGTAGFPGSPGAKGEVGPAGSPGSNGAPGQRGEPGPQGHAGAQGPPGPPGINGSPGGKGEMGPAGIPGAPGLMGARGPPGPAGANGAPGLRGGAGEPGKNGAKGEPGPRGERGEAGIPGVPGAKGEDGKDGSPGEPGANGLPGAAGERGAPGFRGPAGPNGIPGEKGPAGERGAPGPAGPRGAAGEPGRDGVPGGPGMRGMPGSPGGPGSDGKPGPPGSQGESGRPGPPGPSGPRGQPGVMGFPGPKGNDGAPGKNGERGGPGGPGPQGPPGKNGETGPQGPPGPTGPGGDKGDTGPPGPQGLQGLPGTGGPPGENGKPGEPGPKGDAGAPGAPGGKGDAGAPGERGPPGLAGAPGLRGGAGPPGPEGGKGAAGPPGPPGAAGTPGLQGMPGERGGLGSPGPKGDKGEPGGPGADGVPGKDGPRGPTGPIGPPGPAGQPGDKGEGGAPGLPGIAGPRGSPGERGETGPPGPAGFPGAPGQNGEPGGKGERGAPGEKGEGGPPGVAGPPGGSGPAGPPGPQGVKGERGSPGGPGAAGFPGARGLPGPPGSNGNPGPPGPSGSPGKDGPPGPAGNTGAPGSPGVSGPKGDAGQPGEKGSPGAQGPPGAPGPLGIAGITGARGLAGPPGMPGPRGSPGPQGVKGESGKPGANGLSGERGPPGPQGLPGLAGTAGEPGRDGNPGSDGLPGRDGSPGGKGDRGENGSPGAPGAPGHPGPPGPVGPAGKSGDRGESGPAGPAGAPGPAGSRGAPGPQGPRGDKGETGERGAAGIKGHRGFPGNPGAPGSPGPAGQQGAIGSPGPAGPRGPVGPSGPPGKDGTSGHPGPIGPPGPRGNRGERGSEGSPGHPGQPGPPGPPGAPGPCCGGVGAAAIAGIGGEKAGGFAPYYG

Results are given in words; binding and its absence hold for the method and conditions named. In cells and extracts the contact can be indirect. Some binding calls cover weakened binding; strength is not graded here.

What all share (experiment): co-IP; human GPR56^N-hFc proteins (concentrated conditioned media) with purified human collagen III (Abcam); Protein-G beads; blot with anti-collagen III, anti-hFc as loading control; only the binder purified
Experiment [1] has as its target human IgG Fc-tagged human GPR56^N (hGPR56^N-hFc), wild type (human) (UniProt Q9Y653).
Experiment [2] concerns the target human GPR56^N-hFc C91S (human) (UniProt Q9Y653).
Experiment [3] deals with human GPR56^N-hFc Y88C (human) (UniProt Q9Y653).
Experiment [4] deals with human GPR56^N-hFc R38Q (human) (UniProt Q9Y653).

For the substance “purified human collagen III (Abcam) (from UniProt P02461 154-1221) (ligand)”, the binding result is listed as “binds” in experiment [1], “no binding” in experiment [2], “no binding” in experiment [3] and “no binding” in experiment [4].
